Data source: PubChem BioAssay AID720505 (Drosophila RNAi Screening Center, 2013)

Test: 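Knock-downs that reduce calcium influx once internal stores are emptied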 (primary screen)
System: Drosophila S2R+ cells
Reagent: long dsRNA against Drosophila genes
Conditions: thapsigargin (2 µM) in calcium-free buffer to empty internal stores, then 2 mM calcium added back
Read-out: 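Fluo-4 signal in 384-well plates read on a FLIPR after thapsigargin (2 µM, calcium-free) store depletion and 2 mM calcium add-back; unnormalised mean endpoint per well; screen run twice, selected wells retested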
Scale: calcium signal and retest calcium signal: higher = more calcium entry after store depletion
Rule for the call: 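Knock-downs counted as hits when calcium entry dropped relative to STIM1 positive and Rho1 negative controls present on each plate; roughly 1500 genes called, with reductions of differing size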
Meaning of the calls: active = called as lowering calcium entry; inactive = not called
The screen tested about 20,000 reagents; shown is a random part of those with a known target gene and a result. Of all reagents, about 2,100 (10%) are marked active. 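Raw plate signals without normalisation; calls rest on control-based scores that were not deposited; replicate 2 separates called from uncalled poorly.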 Unmarked entries are inactive. The numbers tell different reagents against one gene apart. Names joined by + are all predicted targets of the reagent. No sequences are given here. The record does not give: the amount of reagent, the time to read-out.

| gene knocked down | reagent no. | calcium signal, replicate 1 | calcium signal, replicate 2 | retest calcium signal, replicate 1 | retest calcium signal, replicate 2 |
| --- | --- | --- | --- | --- | --- |
| CR4575 | 1 | 284 | 113 | – | – |
| CG42335 | 1 | 128 | 162 | – | – |
| CG42335 | 2 | 166 | 114 | – | – |
| CG3408 | 1 | 37.6 (active) | 110 | – | – |
| CG7950 + Rpp14a | 1 | 97.5 | 180 | – | – |
| Syx4 | 1 | 147 | 184 | – | – |
| CG42525 | 1 | 6053 | 124 | – | – |
| Dus4 | 1 | 131 | 122 | – | – |
| Zip99C | 1 | 122 | 149 | – | – |
| Top3alpha | 1 | 137 | 95.8 | – | – |
| CG3199 | 1 | 95.1 | 81.9 | – | – |
| CG6937 | 1 | 122 | 80.9 | – | – |
| CG30411 | 1 | 66.1 (active) | 78.3 | – | – |
| CG33521 | 1 | 126 | 159 | – | – |
| CG33521 | 2 | 127 | 183 | – | – |
| CG1227 | 1 | 96.7 | 157 | – | – |
| CG32591 | 1 | 87 | 119 | – | – |
| IntS12 | 1 | 112 | 105 | – | – |
| vn | 1 | 83.8 | 80.6 | – | – |
| vn | 2 | 116 | 141 | – | – |
| ApepP | 1 | 52.2 (active) | 129 | – | – |
| Sprn | 1 | 48.1 (active) | 73.7 | – | – |
| CG7506 | 1 | 90.3 | 128 | – | – |
| ItgaPS4 | 1 | 107 | 210 | – | – |
| CG31104 | 1 | 209 | 162 | – | – |
| CR12628 + Mgstl | 1 | 177 | 108 | 145 | 152 |
| CR12628 + Mgstl | 2 | 174 | 108 | – | – |
| en | 1 | 109 | 192 | – | – |
| fabp + sea | 1 | 70.7 (active) | 130 | – | – |
| fabp + sea | 2 | 78.8 (active) | 120 | – | – |
| sra | 1 | 155 | 202 | – | – |
| CG12716 | 1 | 105 | 99.2 | – | – |
| amx | 1 | 112 | 89.7 | – | – |
| CG14187 | 1 | 72.5 (active) | 109 | – | – |

Taken from above:
Sprn, calcium signal, replicate 2 = 73.7 (active)
Value for CG7506 in “calcium signal, replicate 1”: 90.3
For “calcium signal, replicate 1”, ItgaPS4 has 107
Result for en in “calcium signal, replicate 1”: 109
Under “calcium signal, replicate 2”, CG6937 shows 80.9
